The target in test [1] is T1, rHC1 D298A (MIDAS site mutant) (human) (UniProt P19827).
T1 sequence: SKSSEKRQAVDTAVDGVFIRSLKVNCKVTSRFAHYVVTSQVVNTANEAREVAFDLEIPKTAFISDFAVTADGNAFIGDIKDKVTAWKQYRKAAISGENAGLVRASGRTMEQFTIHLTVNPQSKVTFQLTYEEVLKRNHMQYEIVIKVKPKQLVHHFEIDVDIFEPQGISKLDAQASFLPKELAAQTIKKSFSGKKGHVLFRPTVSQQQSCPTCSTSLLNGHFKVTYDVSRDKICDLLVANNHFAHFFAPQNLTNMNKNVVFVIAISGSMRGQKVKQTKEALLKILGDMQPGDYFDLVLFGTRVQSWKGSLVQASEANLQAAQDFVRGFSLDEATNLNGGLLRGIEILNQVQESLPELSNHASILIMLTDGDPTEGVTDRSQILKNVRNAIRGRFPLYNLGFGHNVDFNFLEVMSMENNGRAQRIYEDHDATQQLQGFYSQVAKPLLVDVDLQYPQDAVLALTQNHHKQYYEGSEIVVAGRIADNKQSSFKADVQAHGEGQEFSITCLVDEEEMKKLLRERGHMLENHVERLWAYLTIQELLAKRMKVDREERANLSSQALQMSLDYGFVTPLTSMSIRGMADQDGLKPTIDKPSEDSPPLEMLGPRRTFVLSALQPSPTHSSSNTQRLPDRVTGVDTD
The test can be described thus: SPR. For orientation: In SPR one partner is held on a chip, and binding of the other changes the refractive index at the surface.

Test [2] has as its target T2, recombinant HC1 (rHC1), wild type; heavy chain 1 of inter-α-inhibitor (human) (UniProt P19827).
T2 sequence: T1 sequence with A264D
The test can be described thus: SPR.

Binding data for five substances are collected here from paper doi:10.1101/695700.

Where a chain is given by its changes, count along the chain named. Results are given in words; binding and its absence hold for the method and conditions named. For some assays here: Binding can be weak; no strength is given.

Consider “TGFβ1-LAP (small latent complex of TGFβ1)”, for which the binding entry in test [1] is “binds”.

In the case of “TGFβ2-LAP (small latent complex of TGFβ2)”, the binding result in test [1] is given as “binds”.

“TGFβ3-LAP (small latent complex of TGFβ3)”: the binding result in test [1] is on record as “binds”.

In the case of “LTBP1 C-terminal region (CT) (domain or fragment)”, in test [2], the binding entry was “no binding (tested: 10nM)”.

With LTBP1 EGF region (domain or fragment), in test [2], the binding entry was “no binding (tested: 10nM)”.
